Consider four molecules from article PMC5496025, “Abstracts from the 10th C1-inhibitor deficiency workshop” (Allergy, Asthma, and Clinical Immunology : Official Journal …, 2017).

The chains behind the UniProt entries cited, without tags or fusion partners. Residues count along the entry.
UniProt P03952, residues 20-638: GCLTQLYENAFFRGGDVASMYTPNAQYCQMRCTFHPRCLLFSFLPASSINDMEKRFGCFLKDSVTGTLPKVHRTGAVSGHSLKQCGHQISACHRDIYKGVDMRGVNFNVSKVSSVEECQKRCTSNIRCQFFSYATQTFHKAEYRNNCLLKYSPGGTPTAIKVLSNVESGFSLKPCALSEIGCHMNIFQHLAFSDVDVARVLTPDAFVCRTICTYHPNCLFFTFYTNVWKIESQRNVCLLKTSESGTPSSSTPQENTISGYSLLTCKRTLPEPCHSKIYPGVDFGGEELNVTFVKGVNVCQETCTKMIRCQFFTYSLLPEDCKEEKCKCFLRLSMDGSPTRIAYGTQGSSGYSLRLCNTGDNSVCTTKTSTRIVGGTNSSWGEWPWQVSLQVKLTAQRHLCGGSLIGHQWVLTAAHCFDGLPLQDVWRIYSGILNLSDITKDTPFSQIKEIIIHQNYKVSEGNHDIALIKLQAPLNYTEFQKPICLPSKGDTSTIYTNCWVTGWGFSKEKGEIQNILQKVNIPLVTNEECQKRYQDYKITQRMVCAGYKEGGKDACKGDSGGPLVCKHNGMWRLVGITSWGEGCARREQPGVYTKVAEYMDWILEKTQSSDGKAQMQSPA

These are yes or no findings as the source states them, for the method shown. Some entries that bind do so weakly or less than the wild type.

The target of assay [1] is T1, commercial plasma-derived C1-INH, further purified by ion-exchange chromatography (UniProt P05155).
T1 sequence: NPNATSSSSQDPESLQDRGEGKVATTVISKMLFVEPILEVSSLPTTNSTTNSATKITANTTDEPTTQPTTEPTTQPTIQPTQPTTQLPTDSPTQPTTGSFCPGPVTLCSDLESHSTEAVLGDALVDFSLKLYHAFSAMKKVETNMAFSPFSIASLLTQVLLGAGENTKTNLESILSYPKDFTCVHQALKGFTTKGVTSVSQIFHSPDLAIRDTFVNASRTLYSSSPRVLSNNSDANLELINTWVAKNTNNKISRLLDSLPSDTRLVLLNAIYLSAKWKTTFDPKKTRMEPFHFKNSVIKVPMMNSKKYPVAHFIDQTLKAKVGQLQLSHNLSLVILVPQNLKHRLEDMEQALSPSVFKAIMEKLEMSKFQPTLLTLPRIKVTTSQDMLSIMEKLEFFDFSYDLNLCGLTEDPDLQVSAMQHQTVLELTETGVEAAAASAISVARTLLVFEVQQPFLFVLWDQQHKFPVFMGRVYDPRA
Put plainly: SDS-PAGE of enzyme/C1-INH complexes; molar equivalent quantities of active enzymes and of C1-INH; both purified.

Another assay addresses T2, factor XIIa (UniProt P00748).
T2 sequence: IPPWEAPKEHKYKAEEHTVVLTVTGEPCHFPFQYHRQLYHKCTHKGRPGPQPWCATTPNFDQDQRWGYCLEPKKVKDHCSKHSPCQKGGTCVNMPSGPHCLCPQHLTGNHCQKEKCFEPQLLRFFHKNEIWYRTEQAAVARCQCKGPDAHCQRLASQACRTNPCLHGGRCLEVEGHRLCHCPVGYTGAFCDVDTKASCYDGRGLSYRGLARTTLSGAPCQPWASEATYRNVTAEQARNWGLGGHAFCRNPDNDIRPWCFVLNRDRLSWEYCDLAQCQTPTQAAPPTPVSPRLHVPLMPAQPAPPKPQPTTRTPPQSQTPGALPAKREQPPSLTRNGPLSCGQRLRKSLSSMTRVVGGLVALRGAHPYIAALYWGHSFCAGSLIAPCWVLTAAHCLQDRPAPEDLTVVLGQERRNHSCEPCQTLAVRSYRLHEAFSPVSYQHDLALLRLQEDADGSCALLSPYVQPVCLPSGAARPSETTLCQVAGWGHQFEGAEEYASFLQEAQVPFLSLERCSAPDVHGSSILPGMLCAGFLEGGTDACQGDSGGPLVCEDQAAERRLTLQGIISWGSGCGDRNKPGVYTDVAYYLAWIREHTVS
Put plainly: ELISA; factor XIIa or kallikrein as the C1 inhibitor ligand; plasma of 30 normal controls and 57 patients with type I/II HAE; only the target purified. In general terms: In an ELISA, binding on a coated surface is turned into a signal by an enzyme label.

The next assay concerns the target plasma kallikrein (UniProt P03952). Described as above.

B1: commercially available active FXII (enzyme, UniProt P00748 20-615)
chain: T2 sequence
With B1, the binding entry in assay [1] is on record as “binds”.

B2: commercial plasma-derived C1-INH, further purified by ion-exchange chromatography (natural protein, UniProt P05155 23-500, looked up)
chain: T1 sequence
notes: source: bought: commercial plasma-derived C1-INH, further purified by ion-exchange chromatography
As for B2, the binding entry with factor XIIa and with plasma kallikrein was “binds” throughout.

B3: active recombinant C1r (enzyme, UniProt P00736 18-705)
chain: SIPIPQKLFGEVTSPLFPKPYPNNFETTTVITVPTGYRVKLVFQQFDLEPSEGCFYDYVKISADKKSLGRFCGQLGSPLGNPPGKKEFMSQGNKMLLTFHTDFSNEENGTIMFYKGFLAYYQAVDLDECASRSKSGEEDPQPQCQHLCHNYVGGYFCSCRPGYELQEDTHSCQAECSSELYTEASGYISSLEYPRSYPPDLRCNYSIRVERGLTLHLKFLEPFDIDDHQQVHCPYDQLQIYANGKNIGEFCGKQRPPDLDTSSNAVDLLFFTDESGDSRGWKLRYTTEIIKCPQPKTLDEFTIIQNLQPQYQFRDYFIATCKQGYQLIEGNQVLHSFTAVCQDDGTWHRAMPRCKIKDCGQPRNLPNGDFRYTTTMGVNTYKARIQYYCHEPYYKMQTRAGSRESEQGVYTCTAQGIWKNEQKGEKIPRCLPVCGKPVNPVEQRQRIIGGQKAKMGNFPWQVFTNIHGRGGGALLGDRWILTAAHTLYPKEHEAQSNASLDVFLGHTNVEELMKLGNHPIRRVSVHPDYRQDESYNFEGDIALLELENSVTLGPNLLPICLPDNDTFYDLGLMGYVSGFGVMEEKIAHDLRFVRLPVANPQACENWLRGKNRMDVFSQNMFCAGHPSLKQDACQGDSGGVFAVRDPNTDRWVATGIVSWGIGCSRGYGFYTKVLNYVDWIKKEMEEED
With B3, in assay [1], the binding entry is on record as “binds”.

B4: active recombinant C1s (enzyme, UniProt P09871 16-688)
chain: EPTMYGEILSPNYPQAYPSEVEKSWDIEVPEGYGIHLYFTHLDIELSENCAYDSVQIISGDTEEGRLCGQRSSNNPHSPIVEEFQVPYNKLQVIFKSDFSNEERFTGFAAYYVATDINECTDFVDVPCSHFCNNFIGGYFCSCPPEYFLHDDMKNCGVNCSGDVFTALIGEIASPNYPKPYPENSRCEYQIRLEKGFQVVVTLRREDFDVEAADSAGNCLDSLVFVAGDRQFGPYCGHGFPGPLNIETKSNALDIIFQTDLTGQKKGWKLRYHGDPMPCPKEDTPNSVWEPAKAKYVFRDVVQITCLDGFEVVEGRVGATSFYSTCQSNGKWSNSKLKCQPVDCGIPESIENGKVEDPESTLFGSVIRYTCEEPYYYMENGGGGEYHCAGNGSWVNEVLGPELPKCVPVCGVPREPFEEKQRIIGGSDADIKNFPWQVFFDNPWAGGALINEYWVLTAAHVVEGNREPTMYVGSTSVQTSRLAKSKMLTPEHVFIHPGWKLLEVPEGRTNFDNDIALVRLKDPVKMGPTVSPICLPGTSSDYNLMDGDLGLISGWGRTEKRDRAVRLKAARLPVAPLRKCKEVKVEKPTADAEAYVFTPNMICAGGEKGMDSCKGDSGGAFAVQDPNDKTKFYAAGLVSWGPQCGTYGLYTRVKNYVDWIMKTMQENSTPRED
As to B4, the binding entry in assay [1] is on record as “binds”.
